Results reported in PubChem BioAssay AID276 (DTP/NCI, 2004).
The list shows only some results of the screen, not a fair sample: it gathers tests that were run many times, whatever their T/C, doses with no T/C, and many T/C values between a quarter and a half above the control. Further doses and runs are listed elsewhere. T/C is the treated group as % of the vehicle group. Some entries give survivors of the animals treated and no T/C: the source holds a T/C of zero for them, seemingly a mark for toxic or unscored doses. Some doses without a T/C left all or most animals alive at the check, yet need not have been tolerated: the source hardly ever lists a survival T/C far under the control, and the zero likely stands for such cases as well. Survivors were counted at the toxicity check, usually on the fifth day, unless a day is given; later deaths do not show. Schedule codes are those of the source, read here as Q, the interval in days (D) or hours (H), X, the number of doses. Some doses were run more than once; the results are listed from low to high. Where survival is the endpoint, this PubChem deposit counts one and a half times the control or more as active, and values a quarter to a half above the control carry no call in these data; other NCI protocols may use other cut-offs. Some T/C values carry the count of animals alive at the toxicity check (mostly the fifth day); without a count, all were alive then.

Test system: B6C3F1 mice, Lewis lung carcinoma iv, survival T/C
Assay: NCI In Vivo Anticancer Drug Screen. Data for tumor model Lewis Lung Carcinoma (intravenous) in B6C3F1 mice
Conditions: T/C endpoint: median survival time, higher T/C = longer survival
Method: The antitumor activity of compounds was measured in mice bearing transplantable tumors. Survival or tumor size were measured and the results are expressed as the measurement made in the treated group (T) divided by the measurement made in the vehicle treated control group (C). The tumor model used in this assay is Lewis Lung Carcinoma (intravenous) in B6C3F1 mice

[1] = dose: 400.0 mg/kg/injection, schedule: Q01DX009 (ip), vehicle: DMSO
[2] = dose: 400.0 mg/kg/injection, schedule: Q01DX009 (ip), vehicle: saline with Tween-80
[3] = dose: 200.0 mg/kg/injection, schedule: Q01DX009 (ip), vehicle: saline with Tween-80
[4] = dose: 100.0 mg/kg/injection, schedule: Q01DX009 (ip), vehicle: saline with Tween-80

CC(=O)O[C@@H]1CO[C@H]2O[C@H]3[C@@H](C(C=O)=C[C@H](O)[C@@H]4C5=C(C(C)C)CC[C@]5(C)CC[C@@]34C)[C@@]2(O)C1=O
survivor count (dose: 6.0 mg/kg/injection, schedule: Q01DX009 (ip), vehicle: Klucel (hydroxypropylcellulose) (HPC)): 7 of 10 | survivor count (dose: 12.0 mg/kg/injection, schedule: Q01DX009 (ip), vehicle: Klucel (hydroxypropylcellulose) (HPC)): 0 of 10 | survivor count (dose: 24.0 mg/kg/injection, schedule: Q01DX009 (ip), vehicle: Klucel (hydroxypropylcellulose) (HPC)): 0 of 10

O=c1nc(-c2ccco2)sc(=O)[nH]1
survivor count (dose: 400.0 mg/kg/injection, schedule: Q01DX009 (ip), vehicle: Klucel (hydroxypropylcellulose) (HPC)): 0 of 10

O=C1c2ccccc2C(=O)c2c3c(cc(NCCNCCO)c21)N(CCO)CCN3
survivor count [1]: 8 of 10

C[CH2][Sn]([CH2]C)([O]S(C)(=O)=O)[O]S(C)(=O)=O
survivor count (dose: 0.78 mg/kg/injection, schedule: Q01DX009 (ip), vehicle: saline): 9 of 10 | survivor count (dose: 6.25 mg/kg/injection, schedule: Q01DX009 (ip), vehicle: saline): 9 of 10 | survivor count (dose: 12.5 mg/kg/injection, schedule: Q01DX009 (ip), vehicle: saline): 7 of 10 | survivor count (dose: 25.0 mg/kg/injection, schedule: Q01DX009 (ip), vehicle: saline): 0 of 10

c1ccc([P+](c2ccccc2)(c2ccccc2)c2ccccc2)cc1
survivor count (dose: 12.0 mg/kg/injection, schedule: Q01DX009 (ip), vehicle: saline): 10 of 10

CCN1/C(=C/C=C/C=C\C=C\c2sc3ccc4ccccc4c3[n+]2CC)Sc2ccc3ccccc3c21
survivor count (dose: 5.0 mg/kg/injection, schedule: Q01DX009 (ip), vehicle: saline with Tween-80): 10 of 10 | survivor count (dose: 10.0 mg/kg/injection, schedule: Q01DX009 (ip), vehicle: saline with Tween-80): 10 of 10 | survivor count (dose: 20.0 mg/kg/injection, schedule: Q01DX009 (ip), vehicle: saline with Tween-80): 8 of 10 | survivor count (dose: 40.0 mg/kg/injection, schedule: Q01DX009 (ip), vehicle: saline with Tween-80): 8 of 10 and 10 of 10

COC(=O)NC1C(C)OC(OC2C/C=C(/C)C3C=CC4C(OC5CC(OC6CCC(OC7CC(O)C(OC8CCC(O)C(C)O8)C(C)O7)C(C)O6)C(OC(C)=O)C(C)O5)C(C)CC(C)C4C3(C)/C(O)=C3/C(=O)OC4(CC(C=O)=CC(O)C4/C=C\2C)C3=O)CC1(C)[N+](=O)[O-] (configuration not stated)
survivor count (dose: 10.0 mg/kg/injection, schedule: Q01DX009 (ip), vehicle: water): 10 of 10 | survivor count (dose: 20.0 mg/kg/injection, schedule: Q01DX009 (ip), vehicle: water): 2 of 10

Cc1ccc(S(=O)(=O)OCOS(=O)(=O)c2ccc(C)cc2)cc1
survivor count (dose: 800.0 mg/kg/injection, schedule: Q01DX009 (ip), vehicle: Klucel (hydroxypropylcellulose) (HPC)): 10 of 10

S=c1nc[nH]c2nc[nH]c12
survivor count (dose: 60.0 mg/kg/injection, schedule: Q01DX009 (ip), vehicle: Klucel (hydroxypropylcellulose) (HPC)): 10 of 10 | survivor count (dose: 120.0 mg/kg/injection, schedule: Q01DX009 (ip), vehicle: Klucel (hydroxypropylcellulose) (HPC)): 8 of 10 | survivor count (dose: 240.0 mg/kg/injection, schedule: Q01DX009 (ip), vehicle: Klucel (hydroxypropylcellulose) (HPC)): 7 of 10

Cc1cc(N)c2ccccc2[n+]1CCCCCCCCCC[n+]1c(C)cc(N)c2ccccc21
survivor count (dose: 6.0 mg/kg/injection, schedule: Q01DX009 (ip), vehicle: dextrose): 5 of 10

COc1ccc(OC)c(Cc2cnc3nc(N)nc(N)c3c2C)c1
survivor count (dose: 100.0 mg/kg/injection, schedule: Q01DX009 (ip), vehicle: water): 5 of 10

CC[C@H](CC[C@@H](C)C1CC[C@H]2[C@@H]3CC=C4C[C@@H](OP(=O)(N5CC5)N5CC5)CC[C@]4(C)[C@H]3CC[C@]12C)C(C)C (some centres not stated)
survivor count [2]: 10 of 10

Cc1ccc2c(ccc(/C=C/c3ccc(O)c4ncccc34)[n+]2C)c1
survivor count (dose: 50.0 mg/kg/injection, schedule: Q01DX009 (ip), vehicle: saline): 10 of 10

CCCCc1ccc2nc(NC(=O)OC)[nH]c2c1
survivor count [3]: 2 of 10

CCCCCCCCCCCCCCC/C([O-])=N/[N+](C)(C)CC(C)O (configuration not stated)
survivor count (dose: 400.0 mg/kg/injection, schedule: Q01DX001 (ip), vehicle: saline): 10 of 10 | survivor count (dose: 800.0 mg/kg/injection, schedule: Q01DX001 (ip), vehicle: saline): 7 of 10

O=C1C(NCCO)=C(N2CC2)C(=O)C(NCCO)=C1N1CC1
survivor count (dose: 2.0 mg/kg/injection, schedule: Q01DX009 (ip), vehicle: saline): 10 of 10

C[CH2][Sn]([CH2]C)([CH2]C(=O)OC)[CH2]C(=O)OC
survivor count (dose: 25.0 mg/kg/injection, schedule: Q01DX009 (ip), vehicle: saline with Tween-80): 0 of 10 | survivor count (dose: 50.0 mg/kg/injection, schedule: Q01DX009 (ip), vehicle: saline with Tween-80): 0 of 10 | survivor count [4]: 0 of 10 | survivor count [3]: 0 of 10

Nc1ncnc2c1nnn2C1OC(CO)C(O)C1O (configuration not stated)
survivor count (dose: 100.0 mg/kg/injection, schedule: Q01DX009 (ip), vehicle: Klucel (hydroxypropylcellulose) (HPC)): 9 of 10 | survivor count (dose: 200.0 mg/kg/injection, schedule: Q01DX009 (ip), vehicle: Klucel (hydroxypropylcellulose) (HPC)): 3 of 10

CC(=O)[C@]1(O)Cc2c(O)c3c(c(O)c2[C@@H](OC2CC(N)C(O)C(C)O2)C1)C(=O)c1c(O)cccc1C3=O (some centres not stated)
survivor count (dose: 0.5 mg/kg/injection, schedule: Q01DX009 (ip), vehicle: saline): 10 of 10 | survivor count (dose: 1.0 mg/kg/injection, schedule: Q01DX009 (ip), vehicle: saline): 9 of 10

O=S(=O)(CCl)OCCCl
survivor count [4]: 9 of 10 | survivor count [3]: 0 of 10 and 5 of 10

CNC(=O)c1cccc2c(Nc3ccc(NS(C)(=O)=O)cc3OC)c3cccc(C)c3nc12
T/C (dose: 6.25 mg/kg/injection, schedule: Q04DX003 (ip), vehicle: saline + alcohol): 125 and 145 % of control | T/C (dose: 6.25 mg/kg/injection, schedule: Q04DX003 (ip), vehicle: water): 143 % of control | T/C (dose: 25.0 mg/kg/injection, schedule: Q04DX003 (ip), vehicle: saline + alcohol): 139 % of control | survivor count (dose: 50.0 mg/kg/injection, schedule: Q04DX003 (ip), vehicle: saline + alcohol): 10 of 10 | survivor count (dose: 50.0 mg/kg/injection, schedule: Q04DX003 (ip), vehicle: water): 7 of 10 | survivor count (dose: 100.0 mg/kg/injection, schedule: Q04DX003 (ip), vehicle: saline + alcohol): 10 of 10 | survivor count (dose: 100.0 mg/kg/injection, schedule: Q04DX003 (ip), vehicle: water): 7 of 10

CCCCNc1ccc2nnc(C)n2n1
survivor count [1]: 0 of 10 | survivor count (dose: 800.0 mg/kg/injection, schedule: Q01DX009 (ip), vehicle: DMSO): 0 of 10

COc1nc(C(Cl)(Cl)Cl)c(Cl)c(OC)c1Cl
survivor count (dose: 200.0 mg/kg/injection, schedule: Q01DX008 (ip), vehicle: Klucel (hydroxypropylcellulose) (HPC)): 10 of 10 | survivor count (dose: 400.0 mg/kg/injection, schedule: Q01DX008 (ip), vehicle: Klucel (hydroxypropylcellulose) (HPC)): 5 of 10

O=C(O)C(CSC(c1ccccc1)(c1ccccc1)c1ccccc1)N=Cc1cccs1 (configuration not stated)
survivor count (dose: 100.0 mg/kg/injection, schedule: Q01DX009 (ip), vehicle: suspension in saline): 9 of 10 | survivor count (dose: 200.0 mg/kg/injection, schedule: Q01DX009 (ip), vehicle: suspension in saline): 10 of 10 | survivor count (dose: 400.0 mg/kg/injection, schedule: Q01DX009 (ip), vehicle: suspension in saline): 2 of 10

CCCN1COC(OCC)C(C)(C)C1 (configuration not stated)
survivor count [3]: 2 of 10 and 3 of 10 | survivor count [2]: 0 of 10

COc1cc2c(ccc3c4cc(OC)c(OC)cc4c[n+](C)c23)cc1O
T/C (dose: 100.0 mg/kg/injection, schedule: Q01DX009 (ip), vehicle: saline): 125 % of control | T/C (dose: 200.0 mg/kg/injection, schedule: Q01DX009 (ip), vehicle: saline): 134 % of control [9 of 10 alive] | survivor count (dose: 400.0 mg/kg/injection, schedule: Q01DX009 (ip), vehicle: saline): 10 of 10
